Experimental data: PubChem BioAssay AID1259254 (NCATS, 2017)

- Test: 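Genome-wide screen for genes that prevent DNA re-replication in cancer cells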 (primary screen)
- Cells: human HCT116 colorectal cancer cells
- Knock-down reagent: single siRNA against human genes
- Duration: 3 days
- Detection: 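Imaged Hoechst DNA stain sorts each cell into a cycle phase by DNA amount; per plate, G2 fraction set to 0% for non-targeting and 100% for GMNN siRNA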
- Scale: G2 robust z-score and G2 cells, % of GMNN control: higher = more G2 cells, more excess DNA replication; raw share of cells in G2: higher = larger share of cells with G2 DNA content
- Hit rule: 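Active siRNAs have a G2 robust z of 5 or more median absolute deviations over the median, which in these data means about 38% or higher of GMNN control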
The deposit covers about 59,000 reagents; shown is an unselected part. In the full data, about 1,550 (2.6%) were called active. 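G2 share is only a proxy for re-replication; each gene was hit by three separate siRNAs, and active genes were retested.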 Raw values vary from plate to plate and are shown uncorrected. Entries without a mark were called inactive. Reagents against one gene are numbered here. The record does not give: the amount of reagent.

Target gene	reagent no.	G2 robust z-score	G2 cells, % of GMNN control	raw share of cells in G2 (%)
C1orf116	1	-0.0502	2.61	5.72
C1orf116	2	-0.502	-0.565	4.36
C1orf116	3	3.64	28.6	10.2
RPS6KA1	1	0.219	4.51	7.1
RPS6KA1	2	-0.443	-0.151	5.36
RPS6KA1	3	2.61	21.3	11.5
STOM	1	0.131	3.89	5.04
STOM	2	-0.413	0.0587	5.33
STOM	3	-1.1	-4.78	2.34
KERA	1	0.234	4.61	8.22
KERA	2	0.427	5.97	6.15
KERA	3	0.482	6.36	6.04
RPS6KA5	1	14.5 (active)	105	38.2
RPS6KA5	2	-1.11	-4.86	3.42
RPS6KA5	3	-0.825	-2.84	2.77
FAM151A	1	-0.048	2.63	4.89
FAM151A	2	3.21	25.6	14.4
FAM151A	3	0.159	4.09	5.83
DIABLO	1	-0.165	1.8	7.22
DIABLO	2	2.45	20.2	11.7
DIABLO	3	-1.09	-4.72	2.37
DNASE2B	1	0.664	7.64	7.05
DNASE2B	2	-0.276	1.03	6.07
DNASE2B	3	0.732	8.12	7.17
RNASE12	1	3.27	26	17.1
RNASE12	2	0.705	7.93	8.05
RNASE12	3	0.311	5.15	6.17
DCAF8L2	1	-0.201	1.56	4.52
DCAF8L2	2	2	17.1	10.7
DCAF8L2	3	-0.965	-3.83	2.65

Continued (7 carried over from the part before).
Target gene	reagent no.	G2 robust z-score	G2 cells, % of GMNN control	raw share of cells in G2 (%)
DNASE2B	3	0.732	8.12	7.17
RNASE12	1	3.27	26	17.1
RNASE12	2	0.705	7.93	8.05
RNASE12	3	0.311	5.15	6.17
DCAF8L2	1	-0.201	1.56	4.52
DCAF8L2	2	2	17.1	10.7
DCAF8L2	3	-0.965	-3.83	2.65
PDK4	1	-0.193	1.61	6.14
PDK4	2	-0.837	-2.92	4.43
PDK4	3	-0.583	-1.13	3.63
SPACA3	1	1.01	10	8.12
SPACA3	2	-0.572	-1.06	3.02
SPACA3	3	-0.0825	2.39	2.52
STAM	1	-0.033	2.74	5.28
STAM	2	0.945	9.62	9.66
STAM	3	-0.053	2.59	5.33
SGCZ	1	-0.0676	2.49	5.75
SGCZ	2	3.2	25.5	14
SGCZ	3	-0.877	-3.2	4.43
SESTD1	1	0.615	7.3	7.18
SESTD1	2	-0.639	-1.53	2.52
SESTD1	3	-0.799	-2.66	2.08
PLBD2	1	-0.605	-1.29	3.14
PLBD2	2	0.603	7.21	5.38
PLBD2	3	-0.544	-0.864	2.49
MMP14	1	3.46	27.3	15.1
MMP14	2	1.07	10.5	8.62
MMP14	3	1.02	10.1	7.68
CCNT1	1	1.04	10.3	8.62
CCNT1	2	0.632	7.41	6.65
CCNT1	3	0.108	3.73	6.36
ATP8B1	1	-0.884	-3.26	3.32
ATP8B1	2	0.198	4.36	4.81
ATP8B1	3	-0.552	-0.915	4.5
MNT	1	0.425	5.96	7.51
MNT	2	-0.559	-0.966	3.84
MNT	3	-0.242	1.27	3.81
PM20D1	1	-0.226	1.38	3.55
PM20D1	2	-0.428	-0.0471	3.81
PM20D1	3	0.982	9.88	5.96
MAP2K7	1	-0.135	2.01	6.27
MAP2K7	2	0.201	4.38	6.89
MAP2K7	3	3.92	30.6	14.8
NDUFAF8	1	2.98	24	10.6
NDUFAF8	2	0.147	4	5.1
NDUFAF8	3	-0.377	0.315	3.17
RBIS	1	-0.262	1.12	4.22
RBIS	2	-0.216	1.45	4.09
RBIS	3	0.907	9.35	8.67
ZNF528	1	-0.118	2.14	3.55
ZNF528	2	-0.0864	2.36	6.98
ZNF528	3	-0.412	0.0717	3.65
SGTB	1	-0.242	1.26	3.24
SGTB	2	-1.3	-6.18	3.12
SGTB	3	-0.879	-3.22	2.62
SOCS4	1	3.39	26.8	14.8
SOCS4	2	1.7	14.9	7.77
SOCS4	3	-0.822	-2.82	0.995
ATP5ME	1	-1.38	-6.76	2.42
ATP5ME	2	-0.132	2.04	4.75
ATP5ME	3	0.932	9.52	8.46
TTLL1	1	3.39	26.8	18.3
TTLL1	2	-1.15	-5.14	2.48
TTLL1	3	3.49	27.6	13
